Test results reported in publication doi:10.1101/2020.05.04.075176.
Results are given in words; binding and its absence hold for the method and conditions named.

Amino acid sequences for entries named in this document (tags omitted). Residues count along the entry.
WRN Helicase (residues 517-1093) (Q14191, residues 517-1093): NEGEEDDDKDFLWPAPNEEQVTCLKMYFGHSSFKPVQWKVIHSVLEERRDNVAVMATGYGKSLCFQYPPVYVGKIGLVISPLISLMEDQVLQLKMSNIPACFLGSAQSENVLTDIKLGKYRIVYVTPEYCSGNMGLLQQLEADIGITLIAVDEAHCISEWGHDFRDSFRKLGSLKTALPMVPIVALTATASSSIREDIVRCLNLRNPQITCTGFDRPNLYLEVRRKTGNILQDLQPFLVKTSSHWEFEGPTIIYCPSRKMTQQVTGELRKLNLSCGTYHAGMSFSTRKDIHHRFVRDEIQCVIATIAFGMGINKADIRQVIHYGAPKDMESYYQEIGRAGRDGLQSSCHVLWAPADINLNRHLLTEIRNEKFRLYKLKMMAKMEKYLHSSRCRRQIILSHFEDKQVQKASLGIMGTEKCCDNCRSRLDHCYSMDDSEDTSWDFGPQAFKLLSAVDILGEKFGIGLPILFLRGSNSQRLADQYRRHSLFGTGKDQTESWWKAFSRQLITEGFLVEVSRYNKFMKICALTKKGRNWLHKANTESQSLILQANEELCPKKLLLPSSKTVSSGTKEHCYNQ
WRN HRDC domain (residues 1142-1242), 15N-labelled (Q14191, residues 1142-1242): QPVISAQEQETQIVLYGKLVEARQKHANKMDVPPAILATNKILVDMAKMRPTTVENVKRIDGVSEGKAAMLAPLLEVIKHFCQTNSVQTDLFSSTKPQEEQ

Experiments:
[1] = molecular target: WRN Helicase (residues 517-1093) (human) (UniProt Q14191); test: crystal structure
[2] = molecular target: WRN HRDC domain (residues 1142-1242), 15N-labelled (human) (UniProt Q14191); test: NMR titration

WRN Helicase (residues 517-1093) (from UniProt Q14191 517-1093) (domain or fragment)
binding [1]: no binding
binding [2]: no binding (tested: 20 μM)
